Structures can show the parent of a compound that is named as a salt. The list shows a part of the results. Single values are uncertain, as repeats are few or missing.
System: Caenorhabditis elegans ST65 (ncIs13[ajm-1::GFP])
Assay: vulvae per adult worm (MAPK/ERK-dependent vulval induction, MetaXpress) (vulvae/adult); higher = more vulval induction (less MAPK/ERK inhibition)
Conditions: 10 µM; exposure time: 4-5 days from L1 at 20°C

| SMILES | vulvae per adult worm |
| --- | --- |
| Cc1[nH]c2ccccc2c1CCNCc1ccc(/C=C/C(=O)NO)cc1 [Panobinostat (LBH589)] | 0.915 |
| CNC(=O)c1cc(COc2nnc(Nc3ccc(Cl)cc3)c3ccoc23)ccn1 [Telatinib] | 1.07 |
| Cc1cccc(-c2[nH]c(CNc3ccccc3F)nc2-c2ccc3ncnn3c2)n1 [Vactosertib ?(TEW-7197)] | 1.12 |
| Cc1nc(Nc2n[nH]c3c2CN(C(=O)N[C@H](CN(C)C)c2ccccc2)C3(C)C)c2sccc2n1 | 1 |
| Nc1ccccc1NC(=O)c1ccc(CNC(=O)OCc2cccnc2)cc1 [Entinostat (MS-275)] | 0.755 |
| COc1cc2ncnc(Nc3cccc(Cl)c3F)c2cc1OC(=O)N1CCN(C)C[C@H]1C | 0.743 |
| CCCCCCCCCCCCCCCCCCOP(=O)([O-])OC1CC[N+](C)(C)CC1 [Perifosine (KRX-0401)] | 0.581 |
| COC(=O)c1ccc2c(c1)NC(=O)/C2=C(\Nc1ccc(N(C)C(=O)CN2CCN(C)CC2)cc1)c1ccccc1 [Nintedanib (BIBF 1120)] | 1.09 |
| O=C1c2c(O)ccc(O)c2C(=O)c2c(NCCNCCO)ccc(NCCNCCO)c21 [Mitoxantrone 2HCl] | 0.867 |
| Nc1ncn([C@H]2C[C@H](O)[C@@H](CO)O2)c(=O)n1 [Decitabine] | 0.848 |
| O=C(c1ccc(OCCN2CCCCC2)cc1)c1c(-c2ccc(O)cc2)sc2cc(O)ccc12 [Raloxifene HCl] | 0.778 |
| O=C(NOCCO)c1ccc2cncn2c1Nc1ccc(I)cc1F | 0.158 |
| C[C@@H](Oc1ccc2[nH]nc(/C=C/c3cnn(CCO)c3)c2c1)c1c(Cl)cncc1Cl | 0.273 |

A portion of the results above:

| SMILES | vulvae per adult worm |
| --- | --- |
| CCCCCCCCCCCCCCCCCCOP(=O)([O-])OC1CC[N+](C)(C)CC1 [Perifosine (KRX-0401)] | 0.581 |
| COC(=O)c1ccc2c(c1)NC(=O)/C2=C(\Nc1ccc(N(C)C(=O)CN2CCN(C)CC2)cc1)c1ccccc1 [Nintedanib (BIBF 1120)] | 1.09 |

Source: the supplement of paper PMC11409438
